These are yes or no findings as the source states them, for the method shown. Binding seen in cells or lysates may run through a third protein. Some entries that bind do so weakly or less than the wild type. For some assays here: Sequences can lack the tags named with a protein.
Tests used:
Flag-HOIP (human) = Flag-HOIP (human) (UniProt Q96EP0); test: co-IP; asynchronous 293T cells transfected with Flag- and HA-tagged constructs; anti-Flag and/or anti-HA IP; lysis in EBC buffer (50 mM Tris pH 7.5, 120 mM NaCl, 0.5% NP-40), four washes with NETN buffer; immunoblot
GST-p31^comet (human) = biological target: T1, GST-p31^comet (human) (UniProt Q15013); test: pull-down; agarose-bound GST-p31 incubated with Flag-HOIP-expressing 293T lysates (the legend says immunopurified Flag-HOIP), 4 °C, 3-4 h, washed with NETN buffer; immunoblot; only the target purified
T1 sequence: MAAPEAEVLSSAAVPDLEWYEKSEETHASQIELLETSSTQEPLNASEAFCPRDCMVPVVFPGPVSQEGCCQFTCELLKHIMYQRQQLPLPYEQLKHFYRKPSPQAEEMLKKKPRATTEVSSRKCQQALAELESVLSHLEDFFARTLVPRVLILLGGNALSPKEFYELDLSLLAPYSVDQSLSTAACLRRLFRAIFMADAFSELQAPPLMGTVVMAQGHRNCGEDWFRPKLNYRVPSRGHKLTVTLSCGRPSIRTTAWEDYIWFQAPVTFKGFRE

By UniProt entry, the sequences of proteins in these tests, tags left out.
UniProt Q96EP0: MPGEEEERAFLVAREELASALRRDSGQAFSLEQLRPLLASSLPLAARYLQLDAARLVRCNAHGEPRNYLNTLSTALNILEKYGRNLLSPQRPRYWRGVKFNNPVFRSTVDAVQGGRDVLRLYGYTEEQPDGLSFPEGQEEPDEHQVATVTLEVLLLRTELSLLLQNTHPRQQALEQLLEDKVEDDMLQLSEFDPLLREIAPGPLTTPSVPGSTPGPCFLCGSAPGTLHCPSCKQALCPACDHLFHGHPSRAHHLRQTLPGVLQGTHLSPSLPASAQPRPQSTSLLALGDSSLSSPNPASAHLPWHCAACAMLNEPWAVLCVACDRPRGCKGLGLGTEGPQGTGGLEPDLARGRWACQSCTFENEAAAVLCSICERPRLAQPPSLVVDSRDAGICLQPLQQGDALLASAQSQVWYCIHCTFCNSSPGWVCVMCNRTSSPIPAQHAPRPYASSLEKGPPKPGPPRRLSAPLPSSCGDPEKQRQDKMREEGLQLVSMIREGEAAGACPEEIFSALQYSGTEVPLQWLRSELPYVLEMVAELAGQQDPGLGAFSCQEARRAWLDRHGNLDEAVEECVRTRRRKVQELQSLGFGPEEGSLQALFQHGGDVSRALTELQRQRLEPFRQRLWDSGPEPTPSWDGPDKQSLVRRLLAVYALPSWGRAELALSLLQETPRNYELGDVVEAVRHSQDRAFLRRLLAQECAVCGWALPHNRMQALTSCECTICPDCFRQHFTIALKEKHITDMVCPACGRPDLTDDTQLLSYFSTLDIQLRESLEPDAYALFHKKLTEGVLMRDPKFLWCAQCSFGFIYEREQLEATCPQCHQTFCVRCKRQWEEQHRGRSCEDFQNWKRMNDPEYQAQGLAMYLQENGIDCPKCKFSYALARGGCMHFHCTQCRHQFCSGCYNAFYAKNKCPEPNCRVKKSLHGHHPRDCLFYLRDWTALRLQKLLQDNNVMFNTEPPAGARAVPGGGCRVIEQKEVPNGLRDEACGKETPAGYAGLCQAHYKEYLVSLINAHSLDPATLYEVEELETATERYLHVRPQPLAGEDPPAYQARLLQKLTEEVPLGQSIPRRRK
UniProt O60566: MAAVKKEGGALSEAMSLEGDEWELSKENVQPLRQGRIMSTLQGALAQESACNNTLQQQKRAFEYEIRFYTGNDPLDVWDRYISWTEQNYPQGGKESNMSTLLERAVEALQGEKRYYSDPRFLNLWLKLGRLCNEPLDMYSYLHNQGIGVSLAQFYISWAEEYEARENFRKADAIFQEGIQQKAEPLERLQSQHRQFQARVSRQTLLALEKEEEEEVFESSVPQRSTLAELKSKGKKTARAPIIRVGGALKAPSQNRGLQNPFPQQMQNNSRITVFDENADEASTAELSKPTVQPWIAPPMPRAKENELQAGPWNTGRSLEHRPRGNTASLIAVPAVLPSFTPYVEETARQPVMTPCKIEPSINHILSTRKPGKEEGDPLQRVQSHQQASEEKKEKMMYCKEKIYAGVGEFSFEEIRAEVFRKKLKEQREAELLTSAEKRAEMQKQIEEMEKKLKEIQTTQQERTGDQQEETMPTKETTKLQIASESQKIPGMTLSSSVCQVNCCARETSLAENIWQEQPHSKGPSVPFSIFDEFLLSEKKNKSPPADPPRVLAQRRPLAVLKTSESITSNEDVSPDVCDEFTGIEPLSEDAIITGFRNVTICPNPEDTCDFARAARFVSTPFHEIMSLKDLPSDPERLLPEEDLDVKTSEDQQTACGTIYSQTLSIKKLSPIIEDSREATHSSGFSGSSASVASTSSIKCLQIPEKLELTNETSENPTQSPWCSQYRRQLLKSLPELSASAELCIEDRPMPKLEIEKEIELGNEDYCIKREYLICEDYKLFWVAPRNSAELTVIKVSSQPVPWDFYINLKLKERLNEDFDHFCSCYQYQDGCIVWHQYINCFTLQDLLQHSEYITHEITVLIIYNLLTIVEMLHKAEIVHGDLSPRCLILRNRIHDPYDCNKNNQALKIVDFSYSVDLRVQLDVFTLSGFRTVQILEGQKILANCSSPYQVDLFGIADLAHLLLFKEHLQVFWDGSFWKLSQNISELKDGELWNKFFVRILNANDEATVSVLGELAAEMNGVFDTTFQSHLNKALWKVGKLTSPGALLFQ
UniProt Q13257: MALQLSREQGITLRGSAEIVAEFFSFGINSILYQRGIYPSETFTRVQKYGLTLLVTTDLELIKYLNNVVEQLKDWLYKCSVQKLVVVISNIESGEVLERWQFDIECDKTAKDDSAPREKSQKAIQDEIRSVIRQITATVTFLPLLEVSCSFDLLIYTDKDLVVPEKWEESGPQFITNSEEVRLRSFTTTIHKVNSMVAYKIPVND
UniProt P53350: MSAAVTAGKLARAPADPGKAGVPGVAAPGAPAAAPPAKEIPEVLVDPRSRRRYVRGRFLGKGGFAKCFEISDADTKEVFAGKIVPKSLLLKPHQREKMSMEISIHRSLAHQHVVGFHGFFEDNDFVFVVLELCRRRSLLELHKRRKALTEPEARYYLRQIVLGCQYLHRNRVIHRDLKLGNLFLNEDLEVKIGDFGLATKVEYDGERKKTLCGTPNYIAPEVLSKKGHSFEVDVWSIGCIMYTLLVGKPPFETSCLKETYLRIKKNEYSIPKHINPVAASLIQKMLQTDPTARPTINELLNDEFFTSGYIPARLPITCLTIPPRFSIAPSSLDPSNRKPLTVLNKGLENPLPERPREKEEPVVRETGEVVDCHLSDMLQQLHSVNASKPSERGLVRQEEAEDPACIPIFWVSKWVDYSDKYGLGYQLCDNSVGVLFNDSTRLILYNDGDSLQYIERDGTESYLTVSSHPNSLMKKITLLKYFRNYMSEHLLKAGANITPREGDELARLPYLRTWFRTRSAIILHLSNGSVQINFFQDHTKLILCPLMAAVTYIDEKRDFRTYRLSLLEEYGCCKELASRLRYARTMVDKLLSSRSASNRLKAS
UniProt Q12834: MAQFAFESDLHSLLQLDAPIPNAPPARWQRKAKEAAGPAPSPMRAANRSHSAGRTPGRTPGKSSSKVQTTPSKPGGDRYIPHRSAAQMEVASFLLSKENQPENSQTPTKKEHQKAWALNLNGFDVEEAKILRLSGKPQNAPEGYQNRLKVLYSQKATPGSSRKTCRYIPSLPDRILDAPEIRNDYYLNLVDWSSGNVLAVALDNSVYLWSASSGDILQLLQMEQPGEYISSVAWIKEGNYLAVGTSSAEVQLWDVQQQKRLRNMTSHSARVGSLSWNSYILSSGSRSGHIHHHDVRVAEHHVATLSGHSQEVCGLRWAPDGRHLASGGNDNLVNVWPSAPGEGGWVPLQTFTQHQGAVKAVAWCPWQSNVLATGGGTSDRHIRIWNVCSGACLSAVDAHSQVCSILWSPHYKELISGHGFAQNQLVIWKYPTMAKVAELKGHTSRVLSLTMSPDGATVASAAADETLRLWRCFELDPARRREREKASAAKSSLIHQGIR

[1] = biological target: T2, HA-p31 in HeLa/HA-p31 cells (human) (UniProt Q15013); test: co-IP; nocodazole arrested (300 nM, 16 h) mitotic HeLa/HA-p31 cells, with or without 50 ng/ml TNFα for 10 min; anti-HA IP; immunoblot
T2 sequence: T1 sequence

binding (Flag-HOIP (human)) | Substance | also measured
no binding | HA-BUBR1 (from UniProt O60566 1-1050) | –
– | Flag-HOIP (from UniProt Q96EP0 1-1072) (enzyme) | binding (GST-p31^comet (human)): binds
no binding | HA-MAD2 (from UniProt Q13257 1-205) | –
– | PLK1 in HeLa/HA-p31 cells (from UniProt P53350 1-603) (enzyme) | binding [1]: binds
no binding | HA-Cdc20 (from UniProt Q12834 1-499) | –

Source: article PMC12135451
